From article PMC6082843
Substitutions are numbered along the chain they refer to. No constants are given. Whether binding was seen depends on the method and setting. Binding seen in cells or lysates may run through a third protein. Some results given as binding are weak or reduced against the parent protein; the word gives no strength.

By UniProt entry, the sequences of proteins in these tests, tags left out.
UniProt Q9UM11: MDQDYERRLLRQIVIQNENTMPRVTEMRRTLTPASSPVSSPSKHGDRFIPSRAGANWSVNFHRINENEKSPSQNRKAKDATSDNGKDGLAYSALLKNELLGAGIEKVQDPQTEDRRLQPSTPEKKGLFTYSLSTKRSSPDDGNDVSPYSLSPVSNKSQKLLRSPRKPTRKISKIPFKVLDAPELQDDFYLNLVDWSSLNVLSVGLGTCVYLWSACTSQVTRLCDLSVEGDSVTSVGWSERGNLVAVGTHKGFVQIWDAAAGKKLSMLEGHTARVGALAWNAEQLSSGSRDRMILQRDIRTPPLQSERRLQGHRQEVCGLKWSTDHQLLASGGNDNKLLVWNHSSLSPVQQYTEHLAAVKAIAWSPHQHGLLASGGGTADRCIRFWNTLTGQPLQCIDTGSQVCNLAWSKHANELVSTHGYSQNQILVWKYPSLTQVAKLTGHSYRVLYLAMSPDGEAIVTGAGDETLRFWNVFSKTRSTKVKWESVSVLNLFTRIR
UniProt P67775: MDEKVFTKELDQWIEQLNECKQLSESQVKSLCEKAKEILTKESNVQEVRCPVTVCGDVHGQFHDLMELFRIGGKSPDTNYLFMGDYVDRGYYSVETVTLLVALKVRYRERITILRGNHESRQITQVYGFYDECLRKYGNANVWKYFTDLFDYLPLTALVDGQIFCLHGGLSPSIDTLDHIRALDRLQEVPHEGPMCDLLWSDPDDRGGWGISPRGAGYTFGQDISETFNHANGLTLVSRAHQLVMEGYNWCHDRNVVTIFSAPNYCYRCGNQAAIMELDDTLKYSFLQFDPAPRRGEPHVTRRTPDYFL

How the values were obtained:
[1] = molecular target: T1, Cdc14A (active form; construct of Supplementary Figures S2 and S8 not given) (human) (UniProt Q9UNH5); assay: co-IP; co-immunoprecipitation from cellular mitotic extracts (Supplementary Figure S8)
T1 sequence: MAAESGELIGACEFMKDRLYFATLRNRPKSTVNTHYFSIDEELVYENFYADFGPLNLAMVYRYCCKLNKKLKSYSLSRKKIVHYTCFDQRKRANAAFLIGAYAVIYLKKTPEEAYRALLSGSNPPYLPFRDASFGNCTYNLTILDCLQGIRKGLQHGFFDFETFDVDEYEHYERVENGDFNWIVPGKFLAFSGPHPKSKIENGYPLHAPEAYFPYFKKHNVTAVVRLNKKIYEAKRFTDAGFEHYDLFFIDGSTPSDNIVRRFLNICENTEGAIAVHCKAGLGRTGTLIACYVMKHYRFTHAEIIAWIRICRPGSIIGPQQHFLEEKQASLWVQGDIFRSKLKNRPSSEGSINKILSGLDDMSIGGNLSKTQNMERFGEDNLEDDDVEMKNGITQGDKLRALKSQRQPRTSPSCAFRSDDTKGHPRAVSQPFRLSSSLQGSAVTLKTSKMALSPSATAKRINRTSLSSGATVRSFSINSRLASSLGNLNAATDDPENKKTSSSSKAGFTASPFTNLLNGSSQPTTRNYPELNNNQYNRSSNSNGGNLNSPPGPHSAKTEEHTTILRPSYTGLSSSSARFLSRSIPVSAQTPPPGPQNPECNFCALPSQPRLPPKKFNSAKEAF

[2] = molecular target: T1, Cdc14A (active form; construct of Supplementary Figures S2 and S8 not given) (human); assay: co-IP; method not named in the text for this pair; 'interacts in vivo'; shown in Supplementary Figure S2
[3] = molecular target: T2, Cdc14A-3A mutant (construct of Supplementary Figure S8 not given) (human) (UniProt Q9UNH5); assay: co-IP; co-immunoprecipitation from cellular mitotic extracts (Supplementary Figure S8)
T2 sequence: T1 sequence with S411A, S453A, S549A

| binding [1] | binding [2] | binding [3] | Substance |
| --- | --- | --- | --- |
| no binding | – | – | Cdh1, the activator of APC/C (from UniProt Q9UM11 1-496) |
| – | binds | – | PP2A α-catalytic subunit (from UniProt P67775 1-309) (enzyme) |
| binds | – | binds | Plk1 (from UniProt P53350 1-603) (enzyme) |
